Data as given in PMC12308248.
Results are given in words; binding and its absence hold for the method and conditions named. In cells and extracts the contact can be indirect. Some results given as binding are weak or reduced against the parent protein; the word gives no strength. Each block holds one substance with its values, some of them ahead of it.

The chains behind the UniProt entries cited, without tags or fusion partners.
UniProt Q6GQQ9: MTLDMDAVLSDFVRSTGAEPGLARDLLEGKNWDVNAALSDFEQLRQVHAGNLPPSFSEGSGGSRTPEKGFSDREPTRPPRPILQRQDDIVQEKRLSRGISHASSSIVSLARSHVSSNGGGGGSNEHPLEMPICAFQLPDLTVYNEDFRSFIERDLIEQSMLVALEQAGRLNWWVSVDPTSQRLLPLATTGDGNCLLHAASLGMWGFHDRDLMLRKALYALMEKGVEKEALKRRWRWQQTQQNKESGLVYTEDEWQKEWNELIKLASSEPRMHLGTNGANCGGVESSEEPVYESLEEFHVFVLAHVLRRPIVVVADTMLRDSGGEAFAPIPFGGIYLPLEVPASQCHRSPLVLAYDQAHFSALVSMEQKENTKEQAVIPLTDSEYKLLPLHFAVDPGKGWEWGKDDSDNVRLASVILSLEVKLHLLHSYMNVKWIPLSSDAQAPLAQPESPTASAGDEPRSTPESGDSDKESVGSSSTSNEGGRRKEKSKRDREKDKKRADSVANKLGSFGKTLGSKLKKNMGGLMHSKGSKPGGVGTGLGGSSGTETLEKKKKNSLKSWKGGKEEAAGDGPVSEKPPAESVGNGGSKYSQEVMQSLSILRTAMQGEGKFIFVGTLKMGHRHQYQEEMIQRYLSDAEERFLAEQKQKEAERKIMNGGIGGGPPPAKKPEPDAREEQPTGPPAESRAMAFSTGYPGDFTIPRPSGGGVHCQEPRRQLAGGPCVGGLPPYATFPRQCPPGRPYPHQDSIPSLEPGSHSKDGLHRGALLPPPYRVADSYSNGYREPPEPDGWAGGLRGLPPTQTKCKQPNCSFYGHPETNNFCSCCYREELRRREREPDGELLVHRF
UniProt Q16665: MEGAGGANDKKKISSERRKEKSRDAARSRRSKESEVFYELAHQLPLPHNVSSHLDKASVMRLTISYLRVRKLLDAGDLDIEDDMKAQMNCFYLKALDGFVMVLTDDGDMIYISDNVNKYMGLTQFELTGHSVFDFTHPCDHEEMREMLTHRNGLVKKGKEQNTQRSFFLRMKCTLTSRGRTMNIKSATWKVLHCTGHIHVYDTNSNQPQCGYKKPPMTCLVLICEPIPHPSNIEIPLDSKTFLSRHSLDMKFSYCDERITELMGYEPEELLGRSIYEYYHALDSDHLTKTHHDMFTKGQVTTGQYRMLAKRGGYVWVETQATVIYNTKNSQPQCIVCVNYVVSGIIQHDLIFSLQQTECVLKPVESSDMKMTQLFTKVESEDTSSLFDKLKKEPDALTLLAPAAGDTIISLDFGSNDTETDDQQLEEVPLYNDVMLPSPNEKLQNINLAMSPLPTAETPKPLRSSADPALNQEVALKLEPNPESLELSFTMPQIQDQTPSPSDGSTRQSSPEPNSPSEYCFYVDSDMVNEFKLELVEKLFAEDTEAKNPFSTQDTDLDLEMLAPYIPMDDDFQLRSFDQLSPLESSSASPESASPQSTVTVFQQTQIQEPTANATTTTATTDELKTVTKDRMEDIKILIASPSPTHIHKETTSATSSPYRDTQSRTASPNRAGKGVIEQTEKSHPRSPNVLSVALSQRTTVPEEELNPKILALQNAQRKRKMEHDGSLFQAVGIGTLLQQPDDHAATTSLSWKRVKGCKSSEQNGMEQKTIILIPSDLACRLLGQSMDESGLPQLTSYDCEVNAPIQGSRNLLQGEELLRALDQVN

Assays:
FLAG-OTUD7B (human) = FLAG-OTUD7B (human) (UniProt Q6GQQ9); assay: co-IP; HA-HIF-1α and FLAG-OTUD7B ectopically expressed in TE-8 cells; lysate subjected to IP with anti-FLAG/HA antibody, western blot
[1] = target: ovarian tumor deubiquitinase 7B (OTUD7B), endogenous (human (endogenous in TE-8)) (UniProt Q6GQQ9); assay: co-IP; endogenous proteins; TE-8 cell lysates in RIPA buffer incubated overnight at 4°C with antibodies to OTUD7B or HIF-1α, protein A/G agarose beads, western blot
[2] = target: hypoxia-inducible factor-1α (HIF-1α), endogenous (human (endogenous in TE-8)) (UniProt Q16665); assay: as above
HA-HIF-1α = HA-HIF-1α (UniProt Q16665); assay: co-IP; HA-HIF-1α and FLAG-OTUD7B ectopically expressed in TE-8 cells; lysate subjected to IP with anti-FLAG/HA antibody, western blot

binding (FLAG-OTUD7B (human)): binds
Substance: HA-HIF-1α (from UniProt Q16665 1-826)

binding [1]: binds
Substance: hypoxia-inducible factor-1α (HIF-1α), endogenous (from UniProt Q16665 1-826)

binding [2]: binds
Substance: ovarian tumor deubiquitinase 7B (OTUD7B), endogenous (from UniProt Q6GQQ9 1-843) (enzyme)

binding (HA-HIF-1α): binds
Substance: FLAG-OTUD7B (from UniProt Q6GQQ9 1-843) (enzyme)
